# Source: PubChem BioAssay AID2685 (National Center for Advancing Translational Sciences (NCATS), 2010)
# The other results are listed elsewhere or left out. Further columns of the screen follow, without active or inactive calls. Compounds called inactive in the main read-out are mostly missing here. Words in brackets tell the shape of the fitted curve; partial curves, single points and poor fits give uncertain potencies.
# Test: qHTS Assay for Lipid Storage Modulators in Drosophila S3 Cells;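 for cell number change: cells counted by Cell Tracker Red CMTPX staining in the red channel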
# Settings: BODIPY lipid droplet fluorescence, 18-24 h; for cell number change: measured here: cell count max response, cells fed with added oleic acid
# In short: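 Laser-scanning cytometry quantifies lipid droplet accumulation (500–530 nm total intensity; droplet/cell object ratio) in oleic acid-fed (400 uM added) Drosophila S3 cells treated with a concentration series. 20 uM Triacsin C defined 100% inhibition.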
# [1] = measured here: lipid fluorescence (Fed channel) AC50, cells fed with added oleic acid
# [2] = measured here: cell number channel AC50, cells fed with added oleic acid
SMILES,cell number change,AC50 [1],AC50 [2]
NC(=O)c1ccccc1OCC(=O)NC12CC3CC(CC(C3)C1)C2,6.97%,"0.00411 µM [rising, full curve, poor fit]",
CSc1ccccc1C(=O)NCCCn1ccnc1,-10.2%,"29.1 µM [falling, single point]",
Cc1cc(-c2nnc(SCc3cccnc3)o2)no1,-12.6%,"6.51 µM [falling, single point]",
Cc1ccc(Sc2ccncc2S(N)(=O)=O)cc1,-1.97%,"32.6 µM [rising, single point]",
Cc1cc(S(=O)(=O)NCc2cccnc2)ccc1F,1.75%,"6.51 µM [rising, single point]",
O=C(c1ccc2c(c1)OCO2)N1CCc2ccccc2C1,-18.7%,"0.259 µM [rising, partial curve]",
O=C(Nc1cc(C(F)(F)F)ccc1Cl)c1cc(C2CC2)on1,17.6%,"29.1 µM [rising, single point]",
CCN(Cc1ccncc1)C(=O)c1ccc(Br)o1,-0.813%,,
Cc1ccc2nc(-c3ccc(NS(C)(=O)=O)cc3)cc(-c3ccccc3)c2c1,-59.4%,,"20.6 µM [falling, single point]"
O=C(O/N=C(\c1ccccc1)c1ccccn1)c1ccc(Cl)c(Cl)c1,-96.5%,"25.9 µM [falling, partial curve]","23.1 µM [falling, partial curve, poor fit]"
Cc1cccc(N(CC(=O)N2CCN(C)CC2)S(=O)(=O)c2ccccc2)c1,-18.4%,"29.1 µM [falling, single point]",
CCCCN(C(=O)C1CCC1)c1c(N)n(CCC)c(=O)[nH]c1=O,2.01%,"11.6 µM [falling, partial curve]",
N/C(Cc1cccc2ccccc12)=N\OC(=O)Cc1cccs1,-0.896%,"29.1 µM [rising, single point]",
O=[N+]([O-])C(=C1Nc2ccccc2N1)/C(Cl)=C(/Cl)Br,36.3%,,"29.1 µM [rising, single point]"
COc1ccc(N2CCN(C(=O)CSc3ncccc3-c3nc4ccccc4[nH]3)CC2)cc1,25.5%,"1.3 µM [rising, full curve]",
Cc1ccc(OCC(=O)OCC(=O)NC2CC2)cc1C,-16.6%,"0.116 µM [falling, full curve, poor fit]",
CCCCCCCC(=O)N1c2ccccc2NC(=O)C1CC(=O)Nc1ccc(C(=O)O)cc1 (stereo not drawn),-3.19%,"0.82 µM [falling, full curve, poor fit]",
CCN(CC)C(=O)C1=C(C)Nc2nc3ccccc3n2C1c1cccc(OC)c1 (stereo not drawn),47.6%,"3.66 µM [rising, partial curve]","7.31 µM [rising, partial curve]"
CCCNC(=O)c1ccc(-c2nn(C)c(=O)c3ccccc23)cc1,-7.62%,"2.91 µM [rising, single point]",
CC(Oc1cccnc1[N+](=O)[O-])C(=O)Nc1ccc(F)cc1 (stereo not drawn),17.7%,"0.13 µM [falling, full curve, poor fit]",

SMILES,cell number change,AC50 [1],AC50 [2]
Cc1cc(=O)[nH]c(N/N=C/c2ccc(-c3ccc(F)cc3)o2)n1,68.4%,,"16.4 µM [rising, single point]"
CCCC(=O)Nc1ccc(C(=O)NNC(=O)COc2ccc(Br)c(C)c2)cc1,35.3%,,"14.6 µM [rising, single point]"
Cn1cccc1CC(=O)NNC(=S)NC(=O)c1ccccc1Br,-34.2%,,"32.6 µM [falling, single point]"
CC(NC(=O)c1ccc(S(=O)(=O)N(C)C)cc1)c1ccc(-n2ccnc2)cc1 (stereo not drawn),25.4%,"1.46 µM [rising, full curve, poor fit]",
COc1ccc(CC(C(=O)Nc2ccc(OC)cc2)c2nn[nH]n2)cc1 (stereo not drawn),-8.66%,,
CN(C)c1cc[nH]c(=O)c1C#N,-32.3%,"2.31 µM [falling, partial curve, poor fit]","0.82 µM [falling, full curve]"
COc1cc(/C=C/C(=O)N2C(=O)c3cccc(N)c3C2=O)cc(OC)c1OC,,"6.51 µM [falling, single point]",
Cc1nn(CCC(=O)NNC(=S)Nc2ccc([N+](=O)[O-])cc2)c(C)c1[N+](=O)[O-],,"6.51 µM [falling, single point]",
COc1cccc(-c2cc(C(=O)NCCCn3ccnc3)no2)c1,57.4%,,"1.3 µM [rising, full curve]"
CCOC(=O)Cn1nc(-c2ccc(C)cc2)ccc1=O,186%,"2.31 µM [rising, partial curve]","20.6 µM [rising, partial curve]"
CCc1nnc(NC(=O)c2cccc(NC(=O)C(C)C)c2)s1,-26.2%,,
NC(=O)c1ccc(NC(=O)COC(=O)c2c[nH]c3ccccc23)cc1,193%,,"18.4 µM [rising, partial curve]"
Cc1nc2c(C(=O)NCCc3ccccc3Cl)c[nH]n2c(=O)c1Cl,16.2%,"6.51 µM [rising, full curve, poor fit]",
Cc1nc(-c2cccc3ccccc23)ccc1C(=O)O,-13.4%,"32.6 µM [falling, single point]","1.84 µM [falling, partial curve, poor fit]"
O=C(Cn1cnc2sc(-c3ccccc3)cc2c1=O)NCc1ccco1,,,"6.51 µM [rising, single point]"
CCOc1cc(NC(=O)c2ccco2)c(OCC)cc1NC(=O)Cc1ccc(OC)c(OC)c1,-32.5%,,"20.6 µM [falling, single point]"
O=C(CSc1ccccc1C(=O)O)NCc1ccc(Cl)cc1,-21.8%,"16.4 µM [falling, single point]","0.0058 µM [falling, full curve, poor fit]"
CCc1cccc(CC)c1NC(=O)CNCc1cccs1,-2.42%,"20.6 µM [rising, single point]",
CCn1cc(C(=O)NCc2ccccc2F)c(=O)c2ccc(C)nc21,6.02%,"2.91 µM [falling, partial curve]",

# One compound at a time, as listed above:
# `O=C(CSc1ccccc1C(=O)O)NCc1ccc(Cl)cc1` in the list: cell number change: -21.8%; AC50 [1]: 16.4 µM [falling, single point]; AC50 [2]: 0.0058 µM [falling, full curve, poor fit]
# `NC(=O)c1ccc(NC(=O)COC(=O)c2c[nH]c3ccccc23)cc1` in the list: cell number change: 193%; AC50 [2]: 18.4 µM [rising, partial curve]
